PubChem BioAssay AID2685 (National Center for Advancing Translational Sciences (NCATS), 2010)
The other results are listed elsewhere or left out. These are further read-outs of the screen, such as a control signal, another cell line or another target. No call is given for them. The list favours compounds with an active or inconclusive main result. Words in brackets tell the shape of the fitted curve; partial curves, single points and poor fits give uncertain potencies.

Experiment: qHTS Assay for Lipid Storage Modulators in Drosophila S3 Cells;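 on cell number change: cells counted by Cell Tracker Red CMTPX staining in the red channel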
Conditions: BODIPY lipid droplet fluorescence, 18-24 h; for cell number change: measured here: cell count max response, cells fed with added oleic acid
Procedure, shortened: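 Drosophila S3 cells loaded with oleic acid (400 uM, as added) and compounds at several concentrations; lipid droplets imaged by 488-nm laser-scanning cytometry, 500–530 nm intensity and object ratio to cell channel. Percent activity normalized to 20 uM Triacsin C.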

[1] = measured here: lipid fluorescence (Fed channel) AC50, cells fed with added oleic acid
[2] = measured here: cell number channel AC50, cells fed with added oleic acid

| Compound | cell number change [%] | AC50 [1] | AC50 [2] |
| --- | --- | --- | --- |
| Cc1ccc(S(=O)(=O)N2CCN(C(=O)CSc3nncs3)CC2)cc1 | -13 | 0.0517 µM [falling, full curve, poor fit] |  |
| Cc1nn(C(=O)c2nn(C)cc2[N+](=O)[O-])c(C)c1Cl | -0.79 |  | 0.291 µM [rising, partial curve, poor fit] |
| COc1ccc(Cl)cc1NC(=O)CN(C)C(=O)Cn1c(=O)oc2ccccc21 | -4.98 | 0.326 µM [falling, full curve, poor fit] |  |
| CN(C)c1ccc(NC(=O)CN2C3CCCC2CC(NC(=O)c2ccccc2)C3)cc1 (stereo not drawn) | 12.6 | 0.116 µM [falling, partial curve, poor fit] |  |
| Oc1ccc(C=Nc2ccccc2-c2nc3ccccc3[nH]2)c(O)c1 | -6.25 | 4.61 µM [rising, single point] |  |
| O=C(CCS(=O)(=O)c1ccc(Cl)cc1)N1CCN(c2ccc(F)cc2)CC1 | 4.2 | 25.9 µM [falling, single point] |  |
| CCOC(=O)c1ccccc1NC(=S)N1CC(C)CC(C)C1 (stereo not drawn) | 14.2 | 7.31 µM [rising, partial curve] |  |
| Cc1coc(C)c1C(=O)Nc1ccc2ccccc2c1 | -8.29 |  |  |
| Cc1ccc(S(=O)(=O)CCC(=O)OCC(=O)N2CC(=O)Nc3ccccc32)cc1 | -13 |  |  |
| O=C(CN1C(=O)NC2(CCCC2)C1=O)N1CCN(c2cccc(C(F)(F)F)c2)CC1 | -18.8 |  |  |
| CCOc1ccccc1NS(=O)(=O)c1ccc2c(c1)N(C)CCO2 |  | 18.4 µM [falling, single point] |  |
| CC(O)CNc1nc2c(c(=O)n(C)c(=O)n2C)n1CCc1ccccc1 (stereo not drawn) | 7.38 | 0.461 µM [falling, partial curve, poor fit] |  |
| CCSc1ccc([C@@H]2[C@H]3C(=O)N(C)C(=O)[C@H]3[C@]3(C(=O)OC)CCCCN23)cc1OC | 20.4 |  |  |
| CC1=C(C(=O)Nc2ccccc2C)C(c2ccccc2)NC(=O)N1 (stereo not drawn) | 8.21 | 0.58 µM [rising, single point] |  |
| COc1cc(/C=C/c2cc(C(=O)O)c3ccccc3n2)ccc1OC(F)F | 34.4 |  | 13 µM [rising, partial curve, poor fit] |
| CCCOc1ccc(/C=N/Nc2ccccn2)cc1OC | 1.88 |  | 6.51 µM [falling, single point] |
| C[C@H](NC(=O)c1ncn(Cc2ccccc2)c1C(=O)N[C@@H](C)c1ccccc1)c1ccccc1 | -0.712 |  |  |
| Fc1ccccc1N1CCN(CC2CCCCC2)CC1 | 17.5 | 29.1 µM [rising, partial curve, poor fit] |  |
| CC1CCN(CCNC(=O)C2CCN(S(=O)(=O)c3cccc4nsnc34)CC2)CC1 | -16.3 |  |  |

| Compound | cell number change [%] | AC50 [1] | AC50 [2] |
| --- | --- | --- | --- |
| O=C(CSc1nc2ccccc2c(=O)n1NC(=O)c1ccccc1)c1ccccc1 | 16.9 | 2.59 µM [rising, full curve] |  |
| COc1ccc(CNC(=O)C2CCN(S(=O)(=O)c3ccc(-c4nn[nH]n4)cc3)CC2)cc1 | 6.02 |  |  |
| COc1ccc(C(=S)N2CCOCC2)cc1OS(=O)(=O)c1ccc(Br)cc1 | 10.6 | 16.4 µM [falling, single point] | 3.66 µM [rising, partial curve, poor fit] |
| O=C(CSC(=S)N1CCCCC1)c1c(F)cccc1F | -65.9 | 23.1 µM [falling, single point] | 20.6 µM [falling, single point] |
| CC(=O)Nc1ccc(S(=O)(=O)Nc2ccccc2N2CCOCC2)cc1Cl | 28.2 | 6.51 µM [rising, single point] |  |
| CCCc1cc(=O)n2[nH]c(C)nc2n1 | -12.4 | 23.1 µM [falling, partial curve] |  |
| CSC1=NCCN1C(=O)c1c(F)cccc1Cl | 41.6 | 2.91 µM [rising, partial curve] | 14.6 µM [rising, single point] |
| c1ccc(OCc2nnc3sc(-c4cccs4)nn23)cc1 | -7.21 | 2.06 µM [rising, full curve] |  |
| Cc1cc(NC(=O)CSc2nnc(CNc3cccc(C(F)(F)F)c3)n2Cc2ccco2)no1 | 10.1 | 0.231 µM [falling, full curve, poor fit] |  |
| CCCCn1c(=O)[nH]c(=O)c2c1nc(-c1ccccc1F)n2Cc1ccccc1OC | 6.12 | 2.06 µM [rising, partial curve, poor fit] |  |
| CCc1nnc(NC(=O)c2cc3ccccc3oc2=O)s1 |  | 20.6 µM [rising, single point] |  |
| O=C(Nc1ccc(Cc2ccncc2)cc1)c1cc(F)c(F)cc1Cl | -6.04 | 2.06 µM [falling, single point] |  |
| Cc1cc(Cl)ccc1NC(=S)NCCN1CCOCC1 | 3.21 | 10.3 µM [rising, partial curve, poor fit] |  |
| Cc1cc([N+](=O)[O-])ccc1NC(=O)CN1CCN(Cc2ccccc2)CC1 | 4.23 | 29.1 µM [rising, single point] |  |
| CC(NC(=O)c1ccco1)C(=O)N1CCN(c2cccc(C(F)(F)F)c2)CC1 (stereo not drawn) | -18 | 6.51 µM [falling, single point] | 6.51 µM [falling, single point] |
| Cc1ccc(-n2c(-c3ccc(Cl)cc3)n[nH]c2=S)cc1 | -10.1 | 29.1 µM [falling, single point] |  |
| Cc1cc([N+](=O)[O-])nn1CC(=O)Nc1ccc(F)cc1 | -5.1 | 0.0058 µM [falling, full curve, poor fit] | 0.00461 µM [falling, full curve, poor fit] |
| C=CCNc1oc(C2CCCC2)nc1C#N | -34.7 | 5.8 µM [rising, full curve] | 29.1 µM [falling, partial curve, poor fit] |
| O=C(Nc1cccc(CCc2ccccn2)c1)c1ccc(Cl)cc1 |  | 2.31 µM [rising, partial curve, poor fit] | 2.91 µM [rising, single point] |

Copied from the listing for reference:

| Compound | cell number change [%] | AC50 [1] | AC50 [2] |
| --- | --- | --- | --- |
| CN(C)c1ccc(NC(=O)CN2C3CCCC2CC(NC(=O)c2ccccc2)C3)cc1 (stereo not drawn) | 12.6 | 0.116 µM [falling, partial curve, poor fit] |  |
| Oc1ccc(C=Nc2ccccc2-c2nc3ccccc3[nH]2)c(O)c1 | -6.25 | 4.61 µM [rising, single point] |  |
| O=C(CCS(=O)(=O)c1ccc(Cl)cc1)N1CCN(c2ccc(F)cc2)CC1 | 4.2 | 25.9 µM [falling, single point] |  |
| CCOC(=O)c1ccccc1NC(=S)N1CC(C)CC(C)C1 (stereo not drawn) | 14.2 | 7.31 µM [rising, partial curve] |  |
| Cc1coc(C)c1C(=O)Nc1ccc2ccccc2c1 | -8.29 |  |  |
| Cc1ccc(S(=O)(=O)CCC(=O)OCC(=O)N2CC(=O)Nc3ccccc32)cc1 | -13 |  |  |
| O=C(CN1C(=O)NC2(CCCC2)C1=O)N1CCN(c2cccc(C(F)(F)F)c2)CC1 | -18.8 |  |  |
| CCOc1ccccc1NS(=O)(=O)c1ccc2c(c1)N(C)CCO2 |  | 18.4 µM [falling, single point] |  |
| CC(O)CNc1nc2c(c(=O)n(C)c(=O)n2C)n1CCc1ccccc1 (stereo not drawn) | 7.38 | 0.461 µM [falling, partial curve, poor fit] |  |
